Chains of the proteins cited; added tags and fusions are not shown. Lines headed by an entry give the natural chain unless they say otherwise; changes in a name come on top.
UniProt Q9R0T4: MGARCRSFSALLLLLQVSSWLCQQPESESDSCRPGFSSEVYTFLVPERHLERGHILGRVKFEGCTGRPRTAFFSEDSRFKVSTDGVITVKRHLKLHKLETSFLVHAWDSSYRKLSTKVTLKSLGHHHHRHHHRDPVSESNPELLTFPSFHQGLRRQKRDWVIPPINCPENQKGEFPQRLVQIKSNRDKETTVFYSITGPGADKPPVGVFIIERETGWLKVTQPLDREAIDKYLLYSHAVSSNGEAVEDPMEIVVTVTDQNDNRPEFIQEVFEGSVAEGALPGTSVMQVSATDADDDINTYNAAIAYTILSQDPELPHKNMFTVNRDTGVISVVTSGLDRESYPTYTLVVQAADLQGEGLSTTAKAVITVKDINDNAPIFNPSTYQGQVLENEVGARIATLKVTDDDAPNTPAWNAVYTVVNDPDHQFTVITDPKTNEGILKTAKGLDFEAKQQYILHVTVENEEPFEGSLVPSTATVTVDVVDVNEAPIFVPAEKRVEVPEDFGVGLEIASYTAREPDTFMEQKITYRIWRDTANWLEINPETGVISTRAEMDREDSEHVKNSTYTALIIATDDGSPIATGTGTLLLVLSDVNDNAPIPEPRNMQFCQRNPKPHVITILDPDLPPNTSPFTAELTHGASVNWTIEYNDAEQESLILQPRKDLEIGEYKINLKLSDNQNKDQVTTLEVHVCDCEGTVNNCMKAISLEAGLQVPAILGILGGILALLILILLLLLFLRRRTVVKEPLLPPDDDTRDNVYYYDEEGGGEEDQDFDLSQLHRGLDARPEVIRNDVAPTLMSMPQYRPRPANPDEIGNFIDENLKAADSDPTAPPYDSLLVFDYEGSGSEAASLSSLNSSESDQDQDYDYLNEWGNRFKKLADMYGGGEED

In paper PMC13215057:

Columns and labels:
[1] = target: GFP-tagged E-cadherin (rat) (UniProt Q9R0T4); assay: cross-linking + co-IP; ReCLIP: Can 10 cells expressing GFP-tagged E- or N-cadherin treated with 0.5 mM DSP (thiol-cleavable cross-linker) 30 min at RT, lysed in RIPA buffer, precipitated with anti-GFP antibody on protein G Sepharose 2 h at 4°C, eluted with reducing agents, blotted for E-cadherin, N-cadherin, GFP
[2] = target: GFP-tagged N-cadherin (rat), Q9Z1Y3; assay: as above; conditions: remark: other sources report otherwise
[3] = target: E-cadherin (endogenous, Can 10 cells) (rat (endogenous in Can 10)); assay: cross-linking + co-IP; ReCLIP of endogenous proteins: Can 10 cells treated with 0.5 mM DSP 30 min at RT, lysed in RIPA buffer, precipitated with control IgG, anti-E-cadherin or anti-N-cadherin antibody on protein G Sepharose 2 h at 4°C, eluted with reducing agents, immunoblot

N-cadherin (endogenous, Can 10 cells) (from UniProt Q9Z1Y3 160-906)
binding [1]: binds weakly

B1: N-cadherin (endogenous, Can 10 cells), Q9Z1Y3 160-906 (protein)
chain: DWVIPPINLPENSRGPFPQELVRIRSDRDKNLSLRYSVTGPGADQPPTGIFIINPISGQLSVTKPLDRELIARFHLRAHAVDINGNQVENPIDIVINVIDMNDNRPEFLHQVWNGSVPEGSKPGTYVMTVTAIDADDPNALNGMLRYRILSQAPSTPSPNMFTINNETGDIITVAAGLDREKVQQYTLIIQATDMEGNPTYGLSNTATAVITVTDVNDNPPEFTAMTFYGEVPENRVDVIVANLTVTDKDQPHTPAWNAAYRISGGDPTGRFAILTDPNSNDGLVTVVKPIDFETNRMFVLTVAAENQVPLAKGIQHPPQSTATVSVTVIDVNENPYFAPNPKIIRQEEGLHAGTMLTTLTAQDPDRYMQQNIRYTKLSDPANWLKIDPVNGQITTIAVLDRESPNVKNNIYNATFLASDNGIPPMSGTGTLQIYLLDINDNAPQVLPQEAETCETPEPNSINITALDYDIDPNAGPFAFDLPLSPATIKRNWTITRLNGDFAQLNLKIKFLEAGIYEVPIVITDSGNPPKSNISILRVKVCQCDSNGDCTDVDRIVGAGLGTGTIIAILLCIIILLILVLMFVVWMKRRDKERQAKQLLIDPEDDVRDNILKYDEEGGGEEDQDYDLSQLQQPDTVEPDAIKPVGIRRLDERPIHAEPQYPVRSAAPHPGDIGDFINEGLKAADNDPTAPPYDSLLVFDYEGSGSTAGSLSSLNSSSSGGDQDYDYLNDWGPRFKKLADMYGGGDD
binding [2]: binds

B2: ARVCF (endogenous, Can 10 cells) (protein, UniProt B4F7F3 1-973)
chain: MEDCNVHSAASILASVKEQEARFERLTRALEQERRHVALQLERAQQPGMSSGGMVGSGQPLPMAWQQLVLQEQSPGSQASLATMPEAPEVLEETVTVEEDPGTPTSHVSIVTSEDGTTRRTETKVTKTVKTVTTRTVRQVPLGPDGLPLLDGGPPLGSFADGPLDRHYVLRGGGPAATLSRAYLSSGGGFPDGPEPRDIPSYGSLSRGLGVRPPRTGLLGPGPGDGCFTLPGRREAFPMGSESGPPSGRSLPEHFQAEPYGLEDDTRSLAADDEGGPDLEPDYSTATRRRPEYGRGLRARALEDTADDTGELVEERPPFPAATAPLAQPERGSLGSLDRVVRRSPSVDSTRKEPRWRDPELPEVLAMLRHPVDPVKANAAAYLQHLCFENEGIKRRVRQLRGLPLLVALLDHPRAEVRRRACGALRNLSYGRDADNKAAIRDCGGVPALVRLLRAARDNEVRELVTGTLWNLSSYEPLKMVIIDHGLQTLTHEVIVPHSGWEREPNEDSKPRDAEWTTVFKNTSGCLRNVSSDGAEARRRLRECEGLVDALLHALQSAVGRKDTDNKSVENCVCIMRNLSYHVHKEVPGADRYQEVEPGIPGSAATSQRRRKDDASCFGGKKAKGKKDAEADRNFDTLDLPKRTEAAKGFELLYQPEVVRLYLSLLTESRNFNTLEAAAGALQNLSAGNWMWATYIRATVRKERGLPVLVELLQSETDKVVRAVAIALRNLSLDQRNKDLIGSYAMTELVRNVRNAQAPAHPSAHLEEDTVVAVLNTIHEIVSDSLDNARSLLQARGVPALVALVASSQSVREAKAASHVLQTVWSYKELRGALQRDGWTKAHFQSASTAKGPKGTPNSGGFDDSTLPLVDKNLDGEKSTTRDVIPMDTLGPDGYSTVDRRERRTLGSDSIGDSSEKELLKGPGPAVCSSDHMEVIGRGPSGTDPVLGPGAPPFCVGLAKPLVYLALPSSLLS
binding [3]: binds

Results are given in words; binding and its absence hold for the method and conditions named. Binding seen in cells or lysates may run through a third protein. A result given as binding can be weak or reduced; the word gives no strength.
